The other results are listed elsewhere or left out.
What was measured:
Test in all cases: log2 fold change, soluble protein after heating vs DMSO (PISA); higher = thermal stabilisation; K562 lysate, 10 uM; active = over 0.2 and 3.5 SD of the protein, either way, in both replicates (recomputed)
[1] = compound: C#Cc1cccc(Nc2ncnc3cc(OCCOC)c(OCCOC)cc23)c1 [erlotinib]
In short: (§1)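 Log-two fold change in thermal stability relative to solvent controls is reported from duplicates. For each sample, crude K562 extract from dounce-homogenised pellets in PBS pH 7.4 with 1 mM MgCl2, at 1 mg/mL protein, was treated with 10 μM compound for 30 min. Aliquots heated for 3 min across 48°C-58°C were pooled, brought to 0.5% NP-40 at 4°C and cleared at 21,000xg for 90 min. The supernatant was quantified by TMTpro 16plex LC-MS/MS with channel sums equalised.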

Chains of the proteins cited; added tags and fusions are not shown. Lines headed by an entry give the natural chain unless they say otherwise; changes in a name come on top.
UniProt Q99986: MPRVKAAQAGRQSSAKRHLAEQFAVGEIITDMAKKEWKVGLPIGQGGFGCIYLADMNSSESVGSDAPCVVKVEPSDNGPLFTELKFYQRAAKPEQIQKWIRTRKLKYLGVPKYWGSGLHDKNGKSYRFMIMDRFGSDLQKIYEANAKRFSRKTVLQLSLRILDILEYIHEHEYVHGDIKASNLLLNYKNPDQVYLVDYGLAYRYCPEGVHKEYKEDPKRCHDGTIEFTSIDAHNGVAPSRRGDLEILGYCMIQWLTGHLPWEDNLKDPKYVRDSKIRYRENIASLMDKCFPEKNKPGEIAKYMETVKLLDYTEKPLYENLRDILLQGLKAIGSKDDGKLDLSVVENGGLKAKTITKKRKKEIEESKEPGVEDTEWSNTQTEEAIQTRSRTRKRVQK
UniProt O43516: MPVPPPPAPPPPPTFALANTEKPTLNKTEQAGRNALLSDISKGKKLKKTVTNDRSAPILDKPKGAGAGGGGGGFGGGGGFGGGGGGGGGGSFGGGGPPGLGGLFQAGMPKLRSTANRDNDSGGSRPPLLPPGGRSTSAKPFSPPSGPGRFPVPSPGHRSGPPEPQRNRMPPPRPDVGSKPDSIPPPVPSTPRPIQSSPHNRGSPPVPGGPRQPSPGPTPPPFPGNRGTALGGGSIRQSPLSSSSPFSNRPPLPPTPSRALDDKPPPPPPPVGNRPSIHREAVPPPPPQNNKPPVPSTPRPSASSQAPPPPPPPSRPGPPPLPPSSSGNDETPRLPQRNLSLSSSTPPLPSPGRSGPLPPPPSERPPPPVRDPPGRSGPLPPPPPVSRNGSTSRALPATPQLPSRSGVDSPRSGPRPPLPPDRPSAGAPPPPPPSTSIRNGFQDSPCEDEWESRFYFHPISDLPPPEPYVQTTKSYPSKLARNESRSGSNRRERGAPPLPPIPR
UniProt Q9NNW5: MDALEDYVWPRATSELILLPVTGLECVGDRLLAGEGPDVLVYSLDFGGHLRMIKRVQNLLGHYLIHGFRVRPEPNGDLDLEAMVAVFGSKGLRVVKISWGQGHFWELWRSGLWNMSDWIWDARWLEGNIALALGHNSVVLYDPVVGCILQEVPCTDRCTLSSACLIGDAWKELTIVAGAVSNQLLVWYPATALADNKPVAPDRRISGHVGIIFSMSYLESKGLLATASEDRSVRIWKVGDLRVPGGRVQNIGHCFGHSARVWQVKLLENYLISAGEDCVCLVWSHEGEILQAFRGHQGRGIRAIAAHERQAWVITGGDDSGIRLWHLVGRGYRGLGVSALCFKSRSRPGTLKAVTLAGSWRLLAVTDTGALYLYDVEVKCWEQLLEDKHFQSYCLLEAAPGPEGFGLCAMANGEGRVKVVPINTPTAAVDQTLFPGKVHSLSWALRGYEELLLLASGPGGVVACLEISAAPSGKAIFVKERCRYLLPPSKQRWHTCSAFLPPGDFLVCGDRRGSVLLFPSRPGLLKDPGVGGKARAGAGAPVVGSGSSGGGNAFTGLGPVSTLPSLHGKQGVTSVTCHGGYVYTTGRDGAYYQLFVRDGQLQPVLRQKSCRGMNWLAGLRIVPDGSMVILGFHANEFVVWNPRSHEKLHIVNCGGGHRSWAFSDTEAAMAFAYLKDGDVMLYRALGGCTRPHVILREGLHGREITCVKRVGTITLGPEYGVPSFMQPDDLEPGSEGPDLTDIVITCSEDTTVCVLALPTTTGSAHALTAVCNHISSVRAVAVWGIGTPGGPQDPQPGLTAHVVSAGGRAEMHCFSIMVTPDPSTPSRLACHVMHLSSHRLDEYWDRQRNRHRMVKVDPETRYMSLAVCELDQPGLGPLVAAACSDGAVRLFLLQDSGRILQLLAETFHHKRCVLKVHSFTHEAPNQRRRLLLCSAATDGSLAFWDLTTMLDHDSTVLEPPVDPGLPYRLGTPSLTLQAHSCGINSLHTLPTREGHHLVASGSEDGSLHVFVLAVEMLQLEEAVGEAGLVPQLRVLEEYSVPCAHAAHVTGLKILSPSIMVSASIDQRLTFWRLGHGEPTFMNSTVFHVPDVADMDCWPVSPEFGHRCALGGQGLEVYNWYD
UniProt Q9P1Q0: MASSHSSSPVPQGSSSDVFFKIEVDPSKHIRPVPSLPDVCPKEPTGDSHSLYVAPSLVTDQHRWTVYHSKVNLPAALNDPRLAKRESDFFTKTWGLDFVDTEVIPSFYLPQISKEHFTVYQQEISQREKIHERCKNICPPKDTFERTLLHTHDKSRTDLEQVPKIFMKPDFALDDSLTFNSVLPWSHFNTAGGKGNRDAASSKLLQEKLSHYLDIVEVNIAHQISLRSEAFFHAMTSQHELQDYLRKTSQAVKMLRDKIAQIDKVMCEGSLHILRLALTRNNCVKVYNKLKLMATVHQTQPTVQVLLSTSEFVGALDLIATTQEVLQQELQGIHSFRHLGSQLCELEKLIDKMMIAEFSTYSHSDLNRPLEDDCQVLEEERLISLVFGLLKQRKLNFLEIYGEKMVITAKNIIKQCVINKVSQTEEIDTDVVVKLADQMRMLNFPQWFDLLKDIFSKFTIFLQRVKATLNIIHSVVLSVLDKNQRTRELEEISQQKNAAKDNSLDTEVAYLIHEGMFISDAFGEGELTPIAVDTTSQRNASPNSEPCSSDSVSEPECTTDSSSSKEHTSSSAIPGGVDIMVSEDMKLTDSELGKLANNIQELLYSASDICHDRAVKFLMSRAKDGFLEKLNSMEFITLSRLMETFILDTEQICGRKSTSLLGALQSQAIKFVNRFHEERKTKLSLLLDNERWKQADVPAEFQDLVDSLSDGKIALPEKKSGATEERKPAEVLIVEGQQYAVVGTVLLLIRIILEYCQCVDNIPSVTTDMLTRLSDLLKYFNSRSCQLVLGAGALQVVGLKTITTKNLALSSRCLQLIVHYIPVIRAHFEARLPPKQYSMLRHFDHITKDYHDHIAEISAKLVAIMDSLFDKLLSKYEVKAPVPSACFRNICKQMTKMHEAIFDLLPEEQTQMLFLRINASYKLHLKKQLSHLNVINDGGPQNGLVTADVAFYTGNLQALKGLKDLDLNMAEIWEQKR
UniProt Q2M389: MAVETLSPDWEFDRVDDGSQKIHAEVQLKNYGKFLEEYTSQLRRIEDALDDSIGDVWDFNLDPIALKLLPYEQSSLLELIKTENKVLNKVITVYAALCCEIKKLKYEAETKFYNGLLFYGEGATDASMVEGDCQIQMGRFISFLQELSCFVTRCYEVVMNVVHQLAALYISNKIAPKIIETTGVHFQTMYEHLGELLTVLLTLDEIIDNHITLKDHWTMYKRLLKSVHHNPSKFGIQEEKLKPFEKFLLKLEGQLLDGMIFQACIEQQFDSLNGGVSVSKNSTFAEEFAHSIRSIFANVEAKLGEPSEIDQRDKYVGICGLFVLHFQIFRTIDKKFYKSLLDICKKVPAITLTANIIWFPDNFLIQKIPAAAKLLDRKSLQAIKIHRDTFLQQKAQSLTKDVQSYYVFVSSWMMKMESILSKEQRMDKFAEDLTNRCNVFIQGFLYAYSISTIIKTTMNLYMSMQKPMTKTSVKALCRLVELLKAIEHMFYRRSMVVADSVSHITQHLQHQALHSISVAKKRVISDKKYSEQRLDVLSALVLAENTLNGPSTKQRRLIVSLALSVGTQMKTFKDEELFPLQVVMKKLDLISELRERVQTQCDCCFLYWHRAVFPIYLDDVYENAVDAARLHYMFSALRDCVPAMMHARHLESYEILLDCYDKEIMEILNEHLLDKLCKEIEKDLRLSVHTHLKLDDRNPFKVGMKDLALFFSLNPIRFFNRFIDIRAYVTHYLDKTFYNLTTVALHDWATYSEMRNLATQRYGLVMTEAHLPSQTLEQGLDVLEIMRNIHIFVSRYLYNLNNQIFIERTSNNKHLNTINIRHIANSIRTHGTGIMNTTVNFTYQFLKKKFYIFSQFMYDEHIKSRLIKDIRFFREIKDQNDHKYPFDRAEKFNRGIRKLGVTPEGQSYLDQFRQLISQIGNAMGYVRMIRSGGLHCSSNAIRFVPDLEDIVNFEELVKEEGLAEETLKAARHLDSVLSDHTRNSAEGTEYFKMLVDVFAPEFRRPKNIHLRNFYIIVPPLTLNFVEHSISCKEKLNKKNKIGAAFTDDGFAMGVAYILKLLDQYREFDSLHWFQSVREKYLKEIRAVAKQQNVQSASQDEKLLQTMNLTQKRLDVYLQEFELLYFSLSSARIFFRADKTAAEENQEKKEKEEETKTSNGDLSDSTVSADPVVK
UniProt Q9NQW7: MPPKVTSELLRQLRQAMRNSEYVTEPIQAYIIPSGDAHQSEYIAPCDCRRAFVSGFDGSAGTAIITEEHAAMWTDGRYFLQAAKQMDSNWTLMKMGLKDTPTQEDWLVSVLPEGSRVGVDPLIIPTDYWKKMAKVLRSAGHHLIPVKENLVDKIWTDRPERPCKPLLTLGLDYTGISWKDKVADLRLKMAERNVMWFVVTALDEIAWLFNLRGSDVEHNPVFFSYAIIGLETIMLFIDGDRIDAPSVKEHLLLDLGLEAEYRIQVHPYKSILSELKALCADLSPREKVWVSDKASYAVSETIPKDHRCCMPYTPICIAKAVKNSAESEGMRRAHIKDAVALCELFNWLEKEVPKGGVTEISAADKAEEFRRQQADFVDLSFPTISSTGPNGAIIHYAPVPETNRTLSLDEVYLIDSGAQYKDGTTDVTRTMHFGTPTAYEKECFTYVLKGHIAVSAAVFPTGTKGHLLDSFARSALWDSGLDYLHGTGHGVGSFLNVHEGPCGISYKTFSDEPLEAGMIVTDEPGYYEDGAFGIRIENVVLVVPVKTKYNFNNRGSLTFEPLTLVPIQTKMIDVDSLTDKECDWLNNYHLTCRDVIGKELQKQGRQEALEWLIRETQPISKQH
UniProt P04004: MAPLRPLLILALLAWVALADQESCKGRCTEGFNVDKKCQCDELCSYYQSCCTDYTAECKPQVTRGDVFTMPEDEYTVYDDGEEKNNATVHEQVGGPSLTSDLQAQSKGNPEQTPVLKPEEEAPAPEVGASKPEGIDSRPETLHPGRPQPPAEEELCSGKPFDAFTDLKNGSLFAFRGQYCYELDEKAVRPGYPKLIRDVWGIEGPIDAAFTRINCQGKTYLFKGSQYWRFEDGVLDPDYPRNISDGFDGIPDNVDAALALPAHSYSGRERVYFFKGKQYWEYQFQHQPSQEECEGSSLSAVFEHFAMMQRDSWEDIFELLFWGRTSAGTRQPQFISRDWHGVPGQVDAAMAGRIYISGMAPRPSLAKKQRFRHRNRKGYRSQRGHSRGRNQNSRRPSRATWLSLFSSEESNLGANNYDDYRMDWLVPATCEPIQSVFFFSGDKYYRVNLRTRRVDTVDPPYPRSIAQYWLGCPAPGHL
UniProt Q9UN37: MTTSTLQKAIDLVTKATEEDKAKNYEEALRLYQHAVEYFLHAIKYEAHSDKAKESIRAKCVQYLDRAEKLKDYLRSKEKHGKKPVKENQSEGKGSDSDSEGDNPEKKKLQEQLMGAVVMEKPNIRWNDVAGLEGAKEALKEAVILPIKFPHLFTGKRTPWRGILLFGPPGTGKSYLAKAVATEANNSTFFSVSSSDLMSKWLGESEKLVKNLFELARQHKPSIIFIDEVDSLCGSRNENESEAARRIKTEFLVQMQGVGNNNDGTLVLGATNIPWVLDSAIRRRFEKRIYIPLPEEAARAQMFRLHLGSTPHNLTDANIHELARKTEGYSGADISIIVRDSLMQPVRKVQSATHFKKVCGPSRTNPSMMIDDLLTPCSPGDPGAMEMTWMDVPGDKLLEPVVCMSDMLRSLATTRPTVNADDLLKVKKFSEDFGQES
UniProt P98170, whole entry, looked up: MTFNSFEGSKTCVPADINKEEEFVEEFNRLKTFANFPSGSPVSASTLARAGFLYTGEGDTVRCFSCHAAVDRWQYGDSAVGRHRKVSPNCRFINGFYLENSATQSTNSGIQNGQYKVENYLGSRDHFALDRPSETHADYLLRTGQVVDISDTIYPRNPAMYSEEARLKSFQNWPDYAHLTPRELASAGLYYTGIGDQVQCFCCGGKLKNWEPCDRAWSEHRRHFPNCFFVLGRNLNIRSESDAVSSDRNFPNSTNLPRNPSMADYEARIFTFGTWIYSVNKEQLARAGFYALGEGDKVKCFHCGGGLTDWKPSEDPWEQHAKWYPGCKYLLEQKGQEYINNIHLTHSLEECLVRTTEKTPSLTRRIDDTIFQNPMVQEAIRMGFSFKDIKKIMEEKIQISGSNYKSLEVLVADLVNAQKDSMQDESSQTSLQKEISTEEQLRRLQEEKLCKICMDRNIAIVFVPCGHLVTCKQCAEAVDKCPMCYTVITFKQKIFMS

[2] = compound: C/C(=N\NC(=O)C1=CC(=CC=C1)S(=O)(=O)N2CCOCC2)/C3=C(C=CC(=C3)Cl)O
In short: as §1

[3] = compound: C1=CC(=CC=C1C2=NC3=C(N2)C=C(C=C3)C(=O)N)OC4=CC=C(C=C4)Cl
In short: as §1

[4] = compound: C1=CC2=C(C=CC(=C2)/C=C\3/C(=O)NC(=NCC4=CC=CS4)S3)N=C1
In short: as §1

[5] = compound: C1=CC2=NC=CN=C2C=C1/C=C/3\C(=O)NC(=O)S3
In short: as §1

[6] = compound: C1=CC=C(C=C1)C2=NC(=C(N2)C3=CC=NC=C3)C4=CC(=C(C=C4)Cl)O
In short: as §1

[7] = compound: C1=CC=C2C(=C1)C3=NNC4=CC=CC(=C43)C2=O
In short: as §1

[8] = compound: C1CCN(C1)C(=O)NC2=CC=CC(=C2)NC3=NC=C(C(=N3)NCCC4=CN=CN4)Br
In short: as §1

[9] = compound: C1CN(CCC1(CC2=CC=C(C=C2)Cl)N)C3=NC=NC4=C3C=CN4
In short: as §1

[10] = compound: C1COCCN1CCN2C3=CC=CC=C3N=C2NC(=O)C4=CC(=CC=C4)[N+](=O)[O-] [IRAK-1-4 Inhibitor I]
In short: as §1

[11] = compound: C=CC(=O)N1CCC[C@@H](n2nc(-c3ccc(Oc4ccccc4)cc3)c3c(N)ncnc32)C1 [ibrutinib]
In short: as §1

[12] = compound: CC(=O)c1cnc2ccc(-c3cc(Cl)c(O)c(Cl)c3)nc2c1N[C@H]1CC[C@H](CN(C)C)CC1
In short: as §1

[13] = compound: CC(C)(C)Cn1c(N)nc2ccc(-c3[nH]c(C(C)(C)C)nc3-c3ccc(F)cc3)nc21 [ralimetinib]
In short: as §1

[14] = compound: CC(C)(O)CC(=O)NCCn1ccc2ncnc(Nc3ccc(Oc4cccc(C(F)(F)F)c4)c(Cl)c3)c21
In short: as §1

[15] = compound: CC(C)C1=C2N=C(C=C(N2N=C1)NCC3=CC=CC=C3)NCCCCCCN
In short: as §1

[16] = compound: CC1=C(C(CC(=O)N1)C2=CC=C(C=C2)C(F)(F)F)C(=O)NC3=C(C=C4C(=C3)C=NN4)F
In short: as §1

[17] = compound: CC1=C(C2=C(C=C1)C(=O)C3=CC=CC=C3N2CCCN)C
In short: as §1

[18] = compound: CC1=C(C=C(C=C1)NC(=O)C2=CC(=CC=C2)C(C)(C)C#N)NC3=CC4=C(C=C3)N=CN(C4=O)C
In short: as §1

[19] = compound: CC1=C(C=C(C=C1)NC(=O)C2=CC(=CC=C2)N(C)C)NC(=O)C3=CC=C(C=C3)O
In short: as §1

[20] = compound: CC1=CC=C(C=C1)SC2=C3C=C(SC3=CN=C2)C(=O)N
In short: as §1

Measured: log2 fold change

VRK1 (UniProt Q99986)
inactive: [1] 0.009 | [2] -0.05 | [3] 0.002 | [4] 0.049 | [5] 0.015 | [6] 0.024 | [7] -0.02 | [8] 0 | [9] 0.02 | [10] -0.02 | [11] 0.008 | [12] 0.035 | [13] 0.122 | [14] 0.005 | [15] -0.008 | [16] -0.013 | [17] 0.007 | [18] -0.015 | [19] 0.018 | [20] 0.003

WIPF1 isoform 3 (UniProt O43516)
inactive: [1] -0.026 | [2] 0.04 | [3] 0.02 | [4] -0.012 | [5] -0.001 | [6] 0.076 | [7] -0.031 | [8] -0.005 | [9] -0.021 | [10] 0.094 | [11] 0.05 | [12] 0.08 | [13] -0.034 | [14] -0.156 | [15] 0.006 | [16] 0.015 | [17] 0.009 | [18] -0.013 | [19] 0.034 | [20] -0.014

WDR36 (UniProt Q8NI36)
inactive: [1] 0 | [2] 0.02 | [3] -0.031 | [4] 0.027 | [5] -0.025 | [6] 0.017 | [7] 0.008 | [8] 0.014 | [9] 0.004 | [10] -0.049 | [11] -0.02 | [12] -0.01 | [13] 0.019 | [14] -0.004 | [15] 0.03 | [16] 0.048 | [17] 0 | [18] 0.019 | [19] 0.013 | [20] 0.033

WDR77 (UniProt Q9BQA1)
inactive: [1] -0.008 | [2] -0.073 | [3] -0.018 | [4] 0.025 | [5] -0.021 | [6] -0.009 | [7] 0.011 | [8] 0.004 | [9] 0.014 | [10] 0.002 | [11] 0.016 | [12] 0.022 | [13] 0.031 | [14] 0.024 | [15] -0.012 | [16] -0.022 | [17] -0.004 | [18] 0.007 | [19] -0.01 | [20] 0.032

WDR6 (UniProt Q9NNW5)
inactive: [1] 0.001 | [2] 0.01 | [3] 0.002 | [4] 0.026 | [5] -0.01 | [6] 0 | [7] -0.014 | [8] -0.02 | [9] 0.021 | [10] -0.011 | [11] 0.008 | [12] 0.008 | [13] 0.018 | [14] -0.017 | [15] -0.032 | [16] -0.012 | [17] -0.019 | [18] 0.011 | [19] 0.022 | [20] 0.017

VPS54 (UniProt Q9P1Q0)
inactive: [1] -0.018 | [2] -0.061 | [3] 0.059 | [4] -0.117 | [5] 0.213 | [6] -0.044 | [7] -0.114 | [8] -0.019 | [9] -0.079 | [10] 0.036 | [11] 0.048 | [12] -0.059 | [13] -0.122 | [14] -0.267 | [15] -0.004 | [16] 0.038 | [17] 0.04 | [18] 0.144 | [19] 0.066 | [20] -0.037

VPS26B (UniProt Q4G0F5)
inactive: [1] 0.002 | [2] -0.039 | [3] 0.014 | [4] 0.011 | [5] 0.018 | [6] -0.019 | [7] -0.027 | [8] -0.016 | [9] -0.01 | [10] 0.015 | [11] 0.028 | [12] -0.012 | [13] 0.026 | [14] -0.034 | [15] -0.026 | [16] -0.005 | [17] -0.03 | [18] -0.006 | [19] -0.035 | [20] -0.003

WASHC4 (UniProt Q2M389)
inactive: [1] 0.027 | [2] 0.021 | [3] -0.02 | [4] -0.015 | [5] -0.02 | [6] 0.013 | [7] -0.009 | [8] 0.022 | [9] 0.022 | [10] -0.008 | [11] 0.007 | [12] 0.007 | [13] -0.026 | [14] 0.012 | [15] -0.027 | [16] -0.008 | [17] 0.009 | [18] 0.049 | [19] 0.022 | [20] -0.005

XPNPEP1 isoform 3 (UniProt Q9NQW7)
inactive: [1] -0.001 | [2] 0.023 | [3] -0.019 | [4] 0.001 | [5] -0.007 | [6] -0.005 | [7] -0.011 | [8] -0.006 | [9] 0.005 | [10] 0.009 | [11] 0.012 | [12] -0.007 | [13] 0.017 | [14] -0.026 | [15] -0.009 | [16] 0.007 | [17] -0.026 | [18] -0.025 | [19] -0.005 | [20] 0.002

VTN (UniProt P04004)
inactive: [1] -0.065 | [2] -0.006 | [3] 0.003 | [4] -0.033 | [5] 0.107 | [6] -0.096 | [7] -0.129 | [8] -0.065 | [9] -0.042 | [10] 0.043 | [11] -0.019 | [12] -0.007 | [13] 0.01 | [14] -0.044 | [15] 0.028 | [16] 0.088 | [17] 0.017 | [18] -0.011 | [19] 0.155 | [20] -0.04

WASHC5 (UniProt Q12768)
inactive: [1] -0.018 | [2] -0.06 | [3] -0.008 | [4] 0.013 | [5] -0.025 | [6] -0.021 | [7] 0.006 | [8] -0.016 | [9] -0.003 | [10] -0.003 | [11] 0.016 | [12] -0.008 | [13] 0.017 | [14] -0.026 | [15] -0.014 | [16] 0 | [17] -0.013 | [18] 0.004 | [19] -0.022 | [20] 0.005

VPS4A (UniProt Q9UN37)
inactive: [1] 0.051 | [2] 0.005 | [3] -0.076 | [4] 0.043 | [5] -0.014 | [6] -0.017 | [7] -0.15 | [8] 0.029 | [9] -0.037 | [10] -0.037 | [11] 0.001 | [12] 0 | [13] 0.013 | [14] 0.035 | [15] 0 | [16] -0.035 | [17] -0.046 | [18] -0.039 | [19] 0.045 | [20] 0.025

XIAP (UniProt P98170)
inactive: [1] 0.02 | [2] -0.016 | [3] -0.039 | [4] 0.042 | [5] 0.025 | [6] 0.03 | [7] -0.014 | [8] -0.001 | [9] 0.025 | [10] 0.046 | [11] 0.025 | [12] -0.031 | [13] -0.002 | [14] -0.04 | [15] -0.058 | [16] 0.034 | [17] -0.017 | [18] 0.034 | [19] 0.021 | [20] -0.034

VPS26C (UniProt O14972)
inactive: [1] 0.01 | [2] 0.046 | [3] 0 | [4] 0.015 | [5] -0.026 | [6] -0.004 | [7] -0.015 | [8] 0.032 | [9] 0.114 | [10] 0.048 | [11] 0.031 | [12] -0.025 | [13] 0.018 | [14] -0.055 | [15] -0.016 | [16] -0.058 | [17] 0.023 | [18] 0.033 | [19] 0.059 | [20] 0

WRB (UniProt O00258)
inactive: [1] -0.043 | [2] 0.208 | [3] 0.027 | [4] 0.002 | [5] -0.009 | [6] -0.002 | [7] 0.049 | [8] 0.051 | [9] -0.064 | [10] 0.101 | [11] 0.045 | [12] -0.043 | [13] -0.095 | [14] -0.255 | [15] -0.024 | [16] -0.025 | [17] -0.141 | [18] 0.063 | [19] -0.004 | [20] -0.024

Source: the supplement of paper PMC10849652
